Where a name gives a salt, the structure may show the parent alone. ± gives the standard deviation of the averaged measurements. Some of the results follow.
Test system: APPdp1-6 iPSC-derived neurons
Assay: pThr231Tau/total Tau ratio Z-score vs DMSO vehicle wells; higher = more pThr231Tau relative to total Tau
Conditions: 5 µM; treatment time 5 days

Compound	pThr231Tau/total Tau ratio Z-score
CC[N+]1(C)CCCC(OC(=O)C(O)(c2ccccc2)c2ccccc2)C1 (configuration not stated) [Prestw-760]	-0.524 ± 1.5
CC(C)c1cccc(C(C)C)c1O [Prestw-931]	2.23 ± 1.5
C[C@]12CC[C@H](O)C[C@H]1CC[C@@H]1[C@@H]2CC[C@]2(C)[C@@H](C3=CC(=O)OC3)CC[C@]12O [Prestw-436]	-3.96 ± 0.4
CC(=O)O[C@H]1CC[C@@]2(C)C(=CC[C@@H]3[C@@H]2CC[C@]2(C)C(=O)CC[C@@H]32)C1 [Prestw-937]	0.187 ± 0.7
O=C(NCNC(=O)NC1C(=O)NC(=O)N1CO)NC1C(=O)NC(=O)N1CO (configuration not stated) [Prestw-1071]	0.179 ± 0.33
CN1C[C@H](CNC(=O)OCc2ccccc2)C[C@@H]2c3cccc4c3c(cn4C)C[C@H]21 [Prestw-364]	-2.17 ± 2.3
Oc1ccc2c3c1O[C@H]1[C@@H](O)CC[C@@]4(O)[C@@H](C2)N(CC2CCC2)CC[C@]314 [Prestw-118]	-1.01 ± 0.012
CCCC(C)C1(CC)C(=O)NC(=O)NC1=O (configuration not stated) [Prestw-1491]	1.15 ± 0.15
C[C@]12C[C@H]3S[C@H]3C[C@@H]1CC[C@@H]1[C@@H]2CC[C@]2(C)[C@@H](O)CC[C@@H]12 [Prestw-1006]	-0.0986 ± 0.64
COP(=O)(OC)C(O)C(Cl)(Cl)Cl (configuration not stated) [Prestw-51]	-0.0436 ± 0.26
ClC1C(Cl)C(Cl)C(Cl)C(Cl)C1Cl (configuration not stated) [LINDANE    (gamma-BHC)    Use: insecticide]	1.32 ± 1.3
C=CCN1CC[C@]23c4c5ccc(O)c4O[C@H]2C(=O)CC[C@@]3(O)[C@H]1C5 [Prestw-111]	-0.335 ± 0.51
C[C@]12CCC(=O)C=C1C=C[C@@H]1[C@@H]2CC[C@@]2(C)[C@H]1CC[C@@]2(O)CCC(=O)O [Prestw-148]	1.89 ± 2.7
CC[C@@H](C(=O)[C@@H](C)[C@@H](O)[C@H](C)[C@@H]1O[C@@H]([C@@H](CC)C(=O)O)CC[C@@H]1C)[C@H]1O[C@]2(C=C[C@@H](O)[C@]3(CC[C@@](C)([C@H]4CC[C@](O)(CC)[C@H](C)O4)O3)O2)[C@H](C)C[C@@H]1C	-5.88 ± 0.57
C(#CCN1CCCC1)CN1CCCC1 [Prestw-331]	-0.0731 ± 0.86
S=C=NCc1ccccc1	-0.0428 ± 0.16
COP(=O)(OC)OC=C(Cl)Cl [DICHLORVOS    Use: insecticide, cholinesterase inhibitor]	1.34 ± 1.1
C[C@]12CC[C@H]3[C@@H](CCC4=CC(=O)CC[C@@]43C)[C@@H]1CC[C@@H]2O	0.483 ± 0.65
O=c1c2ccccc2[se]n1-c1ccccc1 [Prestw-740]	0.266 ± 1
NCC(O)c1ccc(O)cc1 (configuration not stated) [Prestw-949]	-0.201 ± 0.27
C[N+]1([O-])[C@@H]2CC(OC(=O)[C@H](CO)c3ccccc3)C[C@H]1[C@@H]1O[C@@H]12 (some centres not stated) [Prestw-232]	-1.1 ± 1

Reformatted: results already given
Compound,pThr231Tau/total Tau ratio Z-score
C[C@]12CCC(=O)C=C1C=C[C@@H]1[C@@H]2CC[C@@]2(C)[C@H]1CC[C@@]2(O)CCC(=O)O [Prestw-148],1.89 ± 2.7
CC[C@@H](C(=O)[C@@H](C)[C@@H](O)[C@H](C)[C@@H]1O[C@@H]([C@@H](CC)C(=O)O)CC[C@@H]1C)[C@H]1O[C@]2(C=C[C@@H](O)[C@]3(CC[C@@](C)([C@H]4CC[C@](O)(CC)[C@H](C)O4)O3)O2)[C@H](C)C[C@@H]1C,-5.88 ± 0.57
C(#CCN1CCCC1)CN1CCCC1 [Prestw-331],-0.0731 ± 0.86
S=C=NCc1ccccc1,-0.0428 ± 0.16
"COP(=O)(OC)OC=C(Cl)Cl [DICHLORVOS    Use: insecticide, cholinesterase inhibitor]",1.34 ± 1.1

The listing continues:

Compound	pThr231Tau/total Tau ratio Z-score
C[N+]1(C)[C@@H]2CC(OC(=O)[C@H](CO)c3ccccc3)C[C@H]1[C@@H]1O[C@@H]12 (some centres not stated) [METHSCOPOLAMINE BROMIDE    Therap cat: anticholinergic]	0.253 ± 1.2
CC(=O)O[C@H]1C[C@@H]2CC[C@@H]3[C@H](CC[C@@]4(C)[C@H]3C[C@H]([N+]3(C)CCCCC3)[C@@H]4OC(C)=O)[C@@]2(C)C[C@@H]1[N+]1(C)CCCCC1 [Prestw-1034]	1.05 ± 0.25
CN[C@@H](C)[C@H](O)c1ccccc1	-0.713 ± 0.77
Cc1c(N)nc([C@H](CC(N)=O)NC[C@H](N)C(N)=O)nc1C(=O)N[C@H](C(=O)N[C@H](C)[C@@H](O)[C@H](C)C(=O)N[C@H](C(=O)NCCc1nc(-c2nc(C(=O)NCCC[S+](C)C)cs2)cs1)[C@@H](C)O)[C@@H](O[C@@H]1O[C@@H](CO)[C@@H](O)[C@H](O)[C@@H]1O[C@H]1O[C@H](CO)[C@@H](O)[C@H](OC(N)=O)[C@@H]1O)c1cnc[nH]1 [BLEOMYCIN (bleomycin B2 shown), antineoplastic]	-0.498 ± 0.4
O=C1CC[C@@]2(O)[C@H]3Cc4ccc(O)c5c4[C@@]2(CCN3CC2CC2)[C@H]1O5 [Prestw-116]	0.0187 ± 1.1
NC(=O)c1cc([N+](=O)[O-])cc([N+](=O)[O-])c1	0.549 ± 1.4
CN[C@@H]1[C@@H](O)[C@@H](O[C@@H]2[C@@H](O)[C@H](O[C@H]3O[C@H](CN)CC[C@H]3N)[C@@H](N)C[C@H]2N)OC[C@]1(C)O.CN[C@@H]1[C@@H](O)[C@@H](O[C@@H]2[C@@H](O)[C@H](O[C@H]3O[C@H]([C@@H](C)N)CC[C@H]3N)[C@@H](N)C[C@H]2N)OC[C@]1(C)O.CN[C@@H]1[C@@H](O)[C@@H](O[C@@H]2[C@@H](O)[C@H](O[C@H]3O[C@H]([C@@H](C)NC)CC[C@H]3N)[C@@H](N)C[C@H]2N)OC[C@]1(C)O [Prestw-160]	0.0738 ± 0.27
O=C(O)CCCO [SODIUM OXYBATE, anesthetic]	1.27 ± 0.56
CC(NC(C)(C)C)C(=O)c1cccc(Cl)c1 (configuration not stated) [Prestw-249]	0.164 ± 1.3
CN(C)[C@@H]1C(=O)C(C(N)=O)=C(O)[C@@]2(O)C(=O)C3=C(O)c4c(O)cccc4[C@@](C)(O)[C@H]3C[C@@H]12 [Prestw-140]	0.421 ± 0.045
NCC(CC(=O)O)c1ccc(Cl)cc1 (configuration not stated) [Prestw-85]	0.603 ± 0.34
C#C[C@]1(O)CC[C@H]2[C@@H]3CCC4=CC(=O)CCC4=C3C=C[C@@]21CC [Prestw-1267]	0.182 ± 1.1
CN[C@@H](C)[C@@H](O)c1ccccc1 [Pseudoephedrine]	2.06 ± 1.3
CN1C[C@H](C(=O)N[C@]2(C)O[C@@]3(O)[C@@H]4CCCN4C(=O)[C@H](Cc4ccccc4)N3C2=O)C=C2c3cccc4[nH]cc(c34)C[C@H]21 [ERGOTAMINE TARTRATE, analgesic, antimigraine]	1.78 ± 2.1
[O-][n+]1ccccc1[S-].[O-][n+]1ccccc1[S-].[Zn+2]	-3.33 ± 0.34
COc1ccc2c(c1)[C@]13CCCC[C@@H]1[C@H](C2)N(C)CC3 [Prestw-359]	0.683 ± 0.75
C=C[C@H]1CN2CC[C@H]1C[C@H]2[C@H](O)c1ccnc2ccccc12 [CINCHONIDINE    antimalarial    ex Cinchona spp]	0.738 ± 1
C=CC[C@]1(O)CC[C@H]2[C@@H]3CCC4=CC(=O)CCC4=C3C=C[C@@]21C [ALTRENOGEST, progestinantineoplastic]	1.01 ± 1.3
C=C[C@H]1CN2CC[C@H]1C[C@@H]2[C@@H](O)c1ccnc2ccccc12 [CINCHONINE    antimalarial    ex Cinchona spp]	2.79 ± 4
CC(Cc1ccc(O)cc1)NCC(O)c1cc(O)cc(O)c1 (configuration not stated) [Prestw-282]	0.889 ± 0.38
C1CCc2nnnn2CC1 [Prestw-162]	0.35 ± 0.9

Compound	pThr231Tau/total Tau ratio Z-score
CNC(C)[C@@H]1CC[C@@H](N)[C@@H](O[C@H]2[C@H](O)[C@@H](O[C@H]3OC[C@](C)(O)[C@H](NC)[C@H]3O)[C@H](N)C[C@@H]2N)O1.CN[C@@H]1[C@@H](O)[C@@H](O[C@@H]2[C@@H](O)[C@H](O[C@H]3O[C@H](C(C)N)CC[C@H]3N)[C@@H](N)C[C@H]2N)OC[C@]1(C)O.CN[C@@H]1[C@@H](O)[C@@H](O[C@@H]2[C@@H](O)[C@H](O[C@H]3O[C@H](CN)CC[C@H]3N)[C@@H](N)C[C@H]2N)OC[C@]1(C)O (some centres not stated)	0.446 ± 1.6
C[C@]12CC[C@@H](O)C[C@@H]1CC[C@@H]1[C@@H]2CC[C@]2(C)C(=O)CC[C@@H]12 [Prestw-411]	0.559 ± 1.4
C[C@]12CC[C@@H](O)C[C@@H]1CC[C@@H]1[C@@H]2CC[C@]2(C)C(=O)CC[C@@H]12 [Prestw-697]	0.695 ± 0.39
C[C@]12CC[C@@H](O)C[C@@H]1CC[C@@H]1[C@@H]2CC[C@]2(C)C(=O)CC[C@@H]12 [Prestw-440]	0.491 ± 0.048
O=c1[nH]c2ccccc2n1CCCN1CCC(n2c(=O)[nH]c3cc(Cl)ccc32)CC1 [Prestw-340]	-0.536 ± 1.4
COP(=S)(OC)Oc1ccc(SC)c(C)c1 [FENTHION    Use: insecticide, ectoparasiticide]	0.693 ± 0.05
CC(C)[N+](C)(CCC(C(N)=O)(c1ccccc1)c1ccccc1)C(C)C [Prestw-770]	-1.19 ± 0.79
C#C[C@]1(O)CC[C@H]2[C@@H]3CCC4=CC(=O)CC[C@]4(C)[C@H]3CC[C@@]21C [Prestw-261]	-0.332 ± 0.34
CC(C)CC(N(C)C)C1(c2ccc(Cl)cc2)CCC1 (configuration not stated) [Prestw-1159]	-0.282 ± 0.82
Cc1ccc(N=CN(C)C=Nc2ccc(C)cc2C)c(C)c1 [AMITRAZ, scabicide]	-0.746 ± 1.1
S=C(NC1CCCCC1)N1CCC(c2cnc[nH]2)CC1 [Prestw-922]	-0.793 ± 2
CCCC(C)C1(CC)C(=O)N=C(S)NC1=O (configuration not stated) [THIOPENTAL SODIUM    Therap cat: anesthetic]	-0.606 ± 0.27
Cc1cc(O)ccc1Cl [CHLOROCRESOL    Therap cat:  Topical antiseptic]	0.193 ± 1.6
CN1[C@@H]2CC[C@H]1CC(OC(=O)[C@H](CO)c1ccccc1)C2 (some centres not stated) [Prestw-233]	0.211 ± 2.7
C=C(C)[C@H]1CN[C@H](C(=O)O)[C@H]1CC(=O)O [KAINIC ACID    Occurrence: Digenia simplex]	-0.213 ± 0.34
COc1ccc(CN2CCNCC2)c(OC)c1OC [Prestw-549]	1.02 ± 1.4
CC[C@H]1CN2CC[C@H]1C[C@@H]2[C@@H](O)c1ccnc2ccc(OC)cc12	-0.344 ± 1.2
C=C[C@H]1CN2CC[C@H]1C[C@H]2[C@H](OC(=O)OCC)c1ccnc2ccc(OC)cc12 [QUININE ETHYL CARBONATE    Therap cat: antimalarial]	4.19 ± 5.9
CN1CCC2(C)c3cc(O)ccc3N(C)C12 (configuration not stated) [Prestw-1082]	-0.0305 ± 0.57
C[C@]12CC[C@H]3[C@@H](CCC4=CC(=O)CC[C@@H]43)[C@@H]1CC[C@@H]2O [Prestw-982]	-0.379 ± 1.8

Reference: the supplement of paper PMC6414424
